Reference: patent US12241084B2, “Methods for efficient generation of GABAergic interneurons from pluripotent stem cells” (The McLean Hospital Corporation, priority 2013, dated 2025)
Entries after “also recorded” stand apart in the source; their conditions may differ. For at least one compound, name, drawing or mass did not settle the structure.

Tests used:
[1] = test system: GABAA receptor; type: cell-based, human
[2] = test system: GABAA receptor; design: species or system mouse

CN1CCc2cc3c(cc2[C@H]1[C@@H]1OC(=O)c2c1ccc1c2OCO1)OCO3 [bicuculline]
block of spontaneous postsynaptic currents [1]: blocked almost completely; also recorded: blocked postsynaptic currents completely
inhibition of photostimulation-induced postsynaptic currents [2]: inhibited postsynaptic currents completely at all holding potentials examined
